# Primary screen of a compound library

Protein sequences, listed by entry. Tags and fused reporters are not part of them. Residues count along the entry.
UniProt Q8IDJ8, 1-583: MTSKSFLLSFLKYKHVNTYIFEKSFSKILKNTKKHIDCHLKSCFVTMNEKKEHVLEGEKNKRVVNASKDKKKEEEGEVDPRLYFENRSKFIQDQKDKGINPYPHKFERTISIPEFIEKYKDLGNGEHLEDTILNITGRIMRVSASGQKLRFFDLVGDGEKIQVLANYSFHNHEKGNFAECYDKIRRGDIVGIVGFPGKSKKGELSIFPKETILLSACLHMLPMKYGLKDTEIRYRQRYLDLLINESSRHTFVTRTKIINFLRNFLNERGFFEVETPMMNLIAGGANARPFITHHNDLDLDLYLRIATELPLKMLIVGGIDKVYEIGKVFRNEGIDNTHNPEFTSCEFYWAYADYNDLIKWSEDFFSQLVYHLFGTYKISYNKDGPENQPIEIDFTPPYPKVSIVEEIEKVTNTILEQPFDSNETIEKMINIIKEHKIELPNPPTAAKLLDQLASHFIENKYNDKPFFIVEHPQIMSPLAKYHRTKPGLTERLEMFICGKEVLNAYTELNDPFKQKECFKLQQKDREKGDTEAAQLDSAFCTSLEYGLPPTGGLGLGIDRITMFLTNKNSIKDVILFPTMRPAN
UniProt P9WFT3, whole entry: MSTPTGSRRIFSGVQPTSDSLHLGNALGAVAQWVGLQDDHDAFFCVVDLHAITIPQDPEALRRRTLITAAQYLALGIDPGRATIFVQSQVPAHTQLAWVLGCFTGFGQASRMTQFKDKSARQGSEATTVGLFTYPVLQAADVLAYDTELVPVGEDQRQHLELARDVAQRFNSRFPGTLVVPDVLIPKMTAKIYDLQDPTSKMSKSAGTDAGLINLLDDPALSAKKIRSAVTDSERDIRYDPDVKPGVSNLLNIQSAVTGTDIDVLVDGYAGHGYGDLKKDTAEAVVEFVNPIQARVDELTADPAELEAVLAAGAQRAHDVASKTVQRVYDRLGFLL

From ChEMBL document CHEMBL3988442, “University of Dundee, Small-Polar-MMV Screening Library” (2021).

PfKRS1: 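Enzyme assay of the cytosolic lysyl-tRNA synthetase in 384-well plates, read by luminescence. Target: Lysine-tRNA ligase, Plasmodium falciparum 3D7 (UniProt Q8IDJ8). Tested at 30 µM. Direction is inferred from only a few compounds that gave an IC50; most scored high, so higher reads as stronger inhibition. Size under these conditions: about 69,000 compounds, about 49 of them at 50% or above in at least one test.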
MtTrpRS: 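Tryptophan-tRNA ligase, Mycobacterium tuberculosis (UniProt P9WFT3). Enzyme assay of tryptophanyl-tRNA synthetase; the read-out is not stated. Compounds at 10 µM. Higher most likely means stronger inhibition; the record gives no direction and few retests gave an IC50. About 65,000 compounds were tested under these conditions; 0.098% (about 64) showed 50% or more at least once.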

Each number is a percent effect as filed.
The controls that fix the scale are not given in the record; negative values are as filed.
Compounds were drawn at random from those tested, without regard to their results.

CC(C)Cc1cc(C(=O)N2CCC(Oc3cccnc3)CC2)n(C)n1 gave PfKRS1: 7.533%; MtTrpRS: 1.486%. Result for Cc1csc(-c2cccc(NC(=O)N3CCOCC3)c2)n1 was PfKRS1: -0.1624%; MtTrpRS: 2.519%. O=C(c1cc(=O)[nH]c(=O)[nH]1)N1CCCCC1c1ccc(F)cc1 (centres unmarked) read PfKRS1: 5.898%; MtTrpRS: -8.72%. For CCCOc1ccc(CNc2cncc(-n3cccn3)n2)cc1 the result was PfKRS1: 2.476%; MtTrpRS: -2.175%. Cc1cc(C)n(CC2CCCN2C(=O)c2ccc3c(c2)OCO3)n1 (centres unmarked) read PfKRS1: 5.057%; MtTrpRS: -3.606%.

Result for O=C(NCCNC(=O)c1scnc1Cl)c1ccccc1 was PfKRS1: 7.812%; MtTrpRS: 0.7601%. CC(C)n1cnnc1C1CCCN(C(=O)COCc2ccccc2)C1 (centres unmarked) read PfKRS1: 1.588%; MtTrpRS: -6.638%. For O=C(Cc1csc(-c2ccco2)n1)N1CCN(c2cnccn2)CC1 the result was PfKRS1: 4.162%; MtTrpRS: 1.267%. Cc1cc(NC(=O)NCc2ccccn2)n(C)n1 read PfKRS1: -0.8468%; MtTrpRS: -1.657%. For CCc1n[nH]c(C2CN(CC(=O)N(C)Cc3ccco3)CCO2)n1 (centres unmarked) the result was PfKRS1: 0.9624%; MtTrpRS: -0.4036%.

With CNC(=O)NC(=O)C(C)N(C)CCCc1cc(-c2ccccc2)no1 (centres unmarked) the screen gave PfKRS1: 0.7782%; MtTrpRS: 4.548%. CC1CN(C(=O)c2ccc(=O)n(C)c2)c2ccccc2NC1=O (centres unmarked) gave PfKRS1: 7.52%; MtTrpRS: -1.117%. Result for CC(C)NC(=O)[C@H]1C[C@@H]2[C@@H](C1)OCCN2Cc1ccncc1 was PfKRS1: 1.667%; MtTrpRS: -5.112%. For COc1cc(C(=O)N(Cc2cnn(C)c2)C(C)C)ccc1OCC(N)=O the result was PfKRS1: 1.676%; MtTrpRS: -0.8772%. O=C(NCc1ccc2c(c1)CCCO2)c1cn2c(n1)CNCC2 gave PfKRS1: 4.091%; MtTrpRS: 1.432%.

Cc1nc(C)n(CC2CN(Cc3cccc(C(N)=O)c3)CCO2)n1 (centres unmarked) gave PfKRS1: 9.574%; MtTrpRS: -1.876%. COc1c(C2CCCN2C(=O)c2ccc(N(C)C)nn2)c(C)nn1C (centres unmarked) gave PfKRS1: 0.5554%; MtTrpRS: -2.132%. CCOc1ccc(Cl)cc1C(C(=O)O)N1CCC(CO)CC1 (centres unmarked) gave PfKRS1: 4.163%; MtTrpRS: -2.677%. N#Cc1cccnc1OC1CCN(C(=O)c2cc(C3CC3)on2)CC1 gave PfKRS1: 0.7809%; MtTrpRS: 2.812%. Cc1ccc(OC2(C(=O)O)CCN(C(=O)c3cccs3)CC2)cn1 gave PfKRS1: 4.653%; MtTrpRS: 9.964%.

For CCCn1c(N2CCCCC2)nc2c(C)nn(C)c2c1=O the result was PfKRS1: -0.6273%; MtTrpRS: -2.591%. Result for CC(C)CN1CCN(S(=O)(=O)c2cn(C)cn2)[C@H]2CS(=O)(=O)C[C@H]21 was PfKRS1: 6.069%; MtTrpRS: -1.817%. Result for CN1CCOC(CNCc2cccc(OC(F)(F)F)c2)C1 (centres unmarked) was PfKRS1: -0.3337%; MtTrpRS: -6.772%. CC(O)CN1CCC(CN(C)CC(=O)NC2CCOCC2)CC1 (centres unmarked) gave PfKRS1: 0.3652%; MtTrpRS: -6.708%.

The last 2 entries again:

{"compound": "CN1CCOC(CNCc2cccc(OC(F)(F)F)c2)C1", "stereo": "centres unmarked", "PfKRS1": -0.3337, "MtTrpRS": -6.772}
{"compound": "CC(O)CN1CCC(CN(C)CC(=O)NC2CCOCC2)CC1", "stereo": "centres unmarked", "PfKRS1": 0.3652, "MtTrpRS": -6.708}